Values quoted from earlier work as cited in patent publication US20100022576A1 (priority 2006, published 2010).

Settings: in vivo

## Clc1ccc2c(c1)CCc1cccnc1C2=C1CCNCC1 [desloratadine]
  Time to mean peak plasma concentrations: ≤ 3 h
